# Reference: publication PMC6358217
# Biological target: T1, PIP5Kinase Skittles (SKTL), GFP-tagged (D. melanogaster) (UniProt Q9W2R3)
# T1 sequence: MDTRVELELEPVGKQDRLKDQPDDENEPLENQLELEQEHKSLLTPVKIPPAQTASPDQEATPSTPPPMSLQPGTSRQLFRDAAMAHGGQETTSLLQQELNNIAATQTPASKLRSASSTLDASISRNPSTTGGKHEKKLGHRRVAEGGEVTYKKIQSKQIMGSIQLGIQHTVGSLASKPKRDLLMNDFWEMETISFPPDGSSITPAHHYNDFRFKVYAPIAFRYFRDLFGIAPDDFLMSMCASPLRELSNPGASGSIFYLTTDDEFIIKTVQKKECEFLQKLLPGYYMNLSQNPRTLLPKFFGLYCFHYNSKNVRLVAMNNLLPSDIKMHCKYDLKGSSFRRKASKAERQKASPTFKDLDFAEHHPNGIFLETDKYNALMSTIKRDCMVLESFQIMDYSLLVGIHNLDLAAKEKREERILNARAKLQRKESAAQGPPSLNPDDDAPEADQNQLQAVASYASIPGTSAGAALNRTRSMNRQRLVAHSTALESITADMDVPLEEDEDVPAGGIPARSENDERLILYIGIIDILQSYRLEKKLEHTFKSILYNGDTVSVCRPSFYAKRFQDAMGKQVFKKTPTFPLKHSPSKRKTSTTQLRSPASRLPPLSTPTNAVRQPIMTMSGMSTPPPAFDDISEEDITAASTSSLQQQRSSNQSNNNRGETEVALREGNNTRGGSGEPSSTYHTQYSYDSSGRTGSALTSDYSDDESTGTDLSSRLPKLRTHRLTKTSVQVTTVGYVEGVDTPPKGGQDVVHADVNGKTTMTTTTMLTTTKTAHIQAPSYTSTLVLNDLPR
# Assay: affinity purification with mass spectrometry; S2 cells transfected with SKTL-GFP vector or not (control), harvested 3 days later; immunoprecipitation by Chromotek standard procedures; trypsin digestion; LTQ Velos Orbitrap
binder,measurement,value
"dynein light intermediate chain (DLIC), endogenous in S2 cells (protein, UniProt Q9VZ20 1-493) MAMNSGTQTNALTSSFTMKKKDAAAEKENLWSAILNEVQTQGSTKLPSNKSVLVLGDNATGKTTLIAKLQGVEDPKKGSGLEYAYIDVKDEYRDDMTRLGVWVLDGDPGHTNLLHYALNETNYAHTLVILTVSMTQPWGWLEQLNHWIKVLGQHIDSLQLDAKEKEAARQRLTTTWQSYCEVGDDLDPGSPVKRTMRNNSIDEDDLLPLTEDALITNLGLDIVVVVTKTDYMTTLEKEYEYRDEHFDFIQQWIRNFCLRHGTSLFYTSVKEDKNCDVLYKYLTHRIYGLPFRTPALVVEKDAVLIPAGWDSLKKISILYENMHGVKAENPYTDIIKSPPTRKAVSNREAEVQTEDEQAFLARQQEILKQGDQVRGESPLRSQGVGSNKSGPRTPGTTGQSSPKKIDPKLTPATPGAEGVLANFFNSLLHKKSGSPGTGGPGGAGNPAGPGRTANGTDAVMTPEKLAVRTDAAAELDRLSRSVKKEIDMSQSEC",binding,binds

# Results are given in words; binding and its absence hold for the method and conditions named. Binding seen in cells or lysates may run through a third protein. Here binding means that the protein was enriched with, or labelled near, the bait; the list need not be complete. Where a sequence is shown, tags or fusion partners need not be part of it.
